Drug screen on melanoma cell lines: apoptosis marker

From a melanoma drug combination screen (doi:10.1371/journal.pone.0140310); values rounded.

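Human melanoma cells were exposed to two drugs together for 72 h in 1,536-well plates and read by automated microscopy after fixing and staining. Each value is the cleaved-PARP-positive fraction of nuclei relative to DMSO-treated wells, in %, so that 100 equals the control and higher values mean more apoptosis. Concentrations were fixed for each drug; these are the higher of two levels. No replicate spread is given; individual values may be noisy. Basal and induced levels differ widely between cell lines.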
An unselected part of the screen is shown.
A dash means that no value is listed here.

Drugs:
RKI-983 (2 µM): C[C@@H](N)c1ccc(C(=O)Nc2ccnc3[nH]ccc23)cc1
nilutamide (5 µM): CC1(C)NC(=O)N(c2ccc([N+](=O)[O-])c(C(F)(F)F)c2)C1=O
MK-2206 (2 µM): NC1(c2ccc(-c3nc4ccn5c(=O)[nH]nc5c4cc3-c3ccccc3)cc2)CCC1
tanespimycin (0.01 µM): C=CCNC1=C2C[C@@H](C)C[C@H](OC)[C@H](O)[C@@H](C)/C=C(\C)[C@H](OC(N)=O)[C@@H](OC)/C=C\C=C(/C)C(=O)NC(=CC1=O)C2=O
JZL184 (5 µM): O=C(Oc1ccc([N+](=O)[O-])cc1)N1CCC(C(O)(c2ccc3c(c2)OCO3)c2ccc3c(c2)OCO3)CC1
OSI-906 (2 µM): C[C@]1(O)C[C@@H](c2nc(-c3ccc4ccc(-c5ccccc5)nc4c3)c3c(N)nccn32)C1
GW2580 (5 µM): COc1ccc(COc2ccc(Cc3cnc(N)nc3N)cc2OC)cc1
XAV939 (10 µM): Oc1nc(-c2ccc(C(F)(F)F)cc2)nc2c1CSCC2

Drugs	LOX IMVI	501mel	C32	MEL-HO	LB2518-MEL	WM115	A375	WM3526	UACC-62	SK-MEL-2	IST-MEL1	COLO 792
nilutamide + OSI-906	103	-	74.4	116	97.8	195	-	105	69.5	76.6	110	31.1
GW2580 + RKI-983	215	49.9	125	102	178	55.4	19.9	73.5	183	49.3	180	321
GW2580 + nilutamide	146	106	84.4	84.8	65.8	113	135	171	28.6	110	62.8	40.0
MK-2206 + XAV939	129	47.7	161	244	109	404	25.7	63.5	165	33.9	81.4	94.2
XAV939 + GW2580	109	210	160	52.0	105	44.7	60.2	83.1	50.0	38.1	586	64.9
GW2580 + MK-2206	131	106	101	104	82.4	589	130	118	380	105	49.2	104
tanespimycin + XAV939	95.4	274	679	46.1	34.8	681	116	302	595	65.2	291	118
JZL184 + nilutamide	183	98.8	92.5	74.1	55.0	85.8	71.3	40.5	64.2	96.6	25.4	74.2
RKI-983 + tanespimycin	193	-	233	75.4	114	1240	73.4	410	396	161	38.7	204
XAV939 + nilutamide	85.0	237	91.7	46.1	86.7	103	94.3	40.6	30.1	150	69.9	224
OSI-906 + GW2580	101	204	67.0	56.2	30.1	98.9	129	100	52.8	89.4	118	85.6
nilutamide + MK-2206	192	-	423	84.8	134	168	-	111	206	16.8	98.1	99.4
OSI-906 + XAV939	601	107	68.5	117	232	40.7	196	67.9	173	153	140	73.7
JZL184 + GW2580	66.9	-	95.3	50.2	-	56.7	219	103	23.8	-	126	41.3
XAV939 + RKI-983	178	45.3	194	139	269	183	164	145	377	221	29.3	544
tanespimycin + GW2580	465	27.5	2800	179	164	2000	131	139	233	70.7	66.3	74.6
OSI-906 + JZL184	114	100	153	75.0	47.7	52.3	164	215	133	82.7	64.8	88.5
nilutamide + tanespimycin	59.7	-	1000	167	177	563	-	191	157	95.7	247	138
tanespimycin + MK-2206	124	-	695	64.7	149	2540	29.7	331	214	126	252	212
RKI-983 + JZL184	172	93.5	128	48.6	27.2	75.5	158	156	854	149	92.6	74.0
OSI-906 + MK-2206	106	-	149	99.0	80.1	147	119	156	321	100	76.6	110
RKI-983 + MK-2206	61.6	-	448	94.7	130	81.0	153	157	218	120	194	324
nilutamide + RKI-983	90.4	-	382	162	42.3	104	-	212	197	134	33.1	522
RKI-983 + OSI-906	109	-	617	690	388	149	122	199	426	231	84.2	150
JZL184 + XAV939	52.4	138	182	86.9	91.5	52.5	99.6	7.1	152	95.2	53.9	61.1
JZL184 + tanespimycin	25.2	90.5	1160	85.3	538	593	41.3	222	314	23.2	154	77.0
tanespimycin + OSI-906	277	-	672	39.3	668	1530	71.5	277	220	121	285	93.4

2 of the entries, repeated:

Drugs,LOX IMVI,501mel,C32,MEL-HO,LB2518-MEL,WM115,A375,WM3526,UACC-62,SK-MEL-2,IST-MEL1,COLO 792
JZL184 + nilutamide,183,98.8,92.5,74.1,55.0,85.8,71.3,40.5,64.2,96.6,25.4,74.2
XAV939 + RKI-983,178,45.3,194,139,269,183,164,145,377,221,29.3,544